Measurements reported in article doi:10.1101/2022.11.06.515368.
These are yes or no findings as the source states them, for the method shown. Binding seen in cells or lysates may run through a third protein. Some entries that bind do so weakly or less than the wild type.

By UniProt entry, the sequences of proteins in these tests, tags left out.
UniProt Q96EZ8: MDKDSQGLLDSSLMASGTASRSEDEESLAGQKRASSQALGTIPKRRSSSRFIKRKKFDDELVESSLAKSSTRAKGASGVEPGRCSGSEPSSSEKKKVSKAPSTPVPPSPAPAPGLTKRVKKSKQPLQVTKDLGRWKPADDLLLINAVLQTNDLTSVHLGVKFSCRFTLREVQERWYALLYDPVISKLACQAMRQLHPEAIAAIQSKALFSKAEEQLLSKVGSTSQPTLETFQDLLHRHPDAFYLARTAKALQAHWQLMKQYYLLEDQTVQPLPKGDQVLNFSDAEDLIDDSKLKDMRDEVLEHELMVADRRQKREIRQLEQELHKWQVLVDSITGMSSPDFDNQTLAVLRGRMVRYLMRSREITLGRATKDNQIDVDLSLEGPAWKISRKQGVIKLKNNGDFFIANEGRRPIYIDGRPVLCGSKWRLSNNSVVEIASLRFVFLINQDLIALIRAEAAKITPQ

Target: FLAG-tagged MCRS1 (UniProt Q96EZ8)
Assay: co-IP

- binding: binds
B1: CCDC85B (protein, UniProt Q15834 1-202)
chain: MEAEAGGLEELTDEEMAALGKEELVRRLRREEAARLAALVQRGRLMQEVNRQLQGHLGEIRELKQLNRRLQAENRELRDLCCFLDSERQRGRRAARQWQLFGTQASRAVREDLGGCWQKLAELEGRQEELLRENLALKELCLALGEEWGPRGGPSGAGGSGAGPAPELALPPCGPRDLGDGSSSTGSVGSPDQLPLACSPDD
